The chains behind the UniProt entries cited, without tags or fusion partners. Residues count along the entry.
UniProt P02769, 25-607: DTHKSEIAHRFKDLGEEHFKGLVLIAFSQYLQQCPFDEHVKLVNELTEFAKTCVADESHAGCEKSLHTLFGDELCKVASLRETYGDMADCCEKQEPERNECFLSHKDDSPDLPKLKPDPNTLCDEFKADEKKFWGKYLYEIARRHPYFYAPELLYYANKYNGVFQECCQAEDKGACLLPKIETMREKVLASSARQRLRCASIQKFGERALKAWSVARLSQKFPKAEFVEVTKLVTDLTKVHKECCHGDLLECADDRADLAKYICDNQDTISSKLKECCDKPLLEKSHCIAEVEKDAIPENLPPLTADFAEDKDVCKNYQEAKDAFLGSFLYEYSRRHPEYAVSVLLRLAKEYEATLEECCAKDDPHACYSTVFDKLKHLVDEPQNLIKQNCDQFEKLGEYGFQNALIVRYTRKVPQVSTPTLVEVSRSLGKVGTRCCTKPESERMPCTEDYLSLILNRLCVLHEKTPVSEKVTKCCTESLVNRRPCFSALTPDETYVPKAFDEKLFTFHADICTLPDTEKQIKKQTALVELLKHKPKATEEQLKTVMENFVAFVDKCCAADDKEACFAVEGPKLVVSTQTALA

According to publication PMC8776986:

Legend:
[1] = target: bovine serum protein (BSA) (bovine) (UniProt P02769); experiment: electrochemical aptasensor (DPV, MB release); conditions: same concentration as thrombin; Sensor rinsed in PBS, pH 7.0 buffer; aptamer hybridized 60 min at room temperature; thrombin reaction 40 min; binding buffer salt and temperature not stated; commercial protein; label: methylene blue adsorbed non-covalently
[2] = target: human serum protein (HSA) (human) (UniProt P02768); experiment: electrochemical aptasensor (DPV, MB release); conditions: same concentration as thrombin; Sensor rinsed in PBS, pH 7.0 buffer; aptamer hybridized 60 min at room temperature; thrombin reaction 40 min; binding buffer salt and temperature not stated; commercial protein; label: methylene blue adsorbed non-covalently

Does CACTGTGGTTGGTGTGGTTGG / CCAACCACAGTG bind [1]?
Result: no binding

Does CACTGTGGTTGGTGTGGTTGG / CCAACCACAGTG bind [2]?
Result: no binding

Negatives hold for the conditions tested.
